# Results from the supplement of paper PMC4604168 (melanoma cell lines).
# The list shows a part of the results. Repeats are few or missing, and single values can be far off.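 The apoptosis fraction was the count of cleaved-PARP antibody-stained nuclei relative to all DNA-stained nuclei, imaged in 1,536-well plates. Screening doses were set so most cells survived, and baseline and induced cleaved-PARP levels vary greatly across cell lines.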
# Legend:
# Assay in all cases: cleaved PARP positive nuclei fraction relative to DMSO control; melanoma cells; higher = more apoptosis
# Details in all cases: library dose: low library concentration; 72 h
# 501Mel = system: 501Mel
# A101D = system: A101D
# A2058 = system: A2058
# A375 = system: A375
# C32 = system: C32
# CBRC013 = system: CBRC013 (line from a melanoma biopsy)
# CBRC014 = system: CBRC014 (line from a melanoma biopsy)
# CBRC016 = system: CBRC016 (line from a melanoma biopsy)
# CBRC017 = system: CBRC017 (line from a melanoma biopsy)
# CBRC034 = system: CBRC034 (line from a melanoma biopsy)
# COLO792 = system: COLO792
# COLO800 = system: COLO800
# COLO829 = system: COLO829
# G361 = system: G361
# IPC-298 = system: IPC-298
# IST-MEL1 = system: IST-MEL1
# LB2518-MEL = system: LB2518-MEL
# LOXIMVI = system: LOXIMVI
smiles,measurement,setting,value
"CO[C@@H]1[C@H](N(C)C(=O)c2ccccc2)C[C@H]2O[C@]1(C)n1c3ccccc3c3c4c(c5c6ccccc6n2c5c31)C(=O)NC4 [Midostaurin] + N#Cc1c(O)c2c(-c3ccc(-c4ccccc4O)cc3)csc2[nH]c1=O [A769662] (first compound 0.08 µM, partner dose 2 µM)",cleaved PARP positive nuclei fraction,501Mel,60.9%
same,cleaved PARP positive nuclei fraction,A101D,53.7%
same,cleaved PARP positive nuclei fraction,A2058,176%
same,cleaved PARP positive nuclei fraction,A375,127%
same,cleaved PARP positive nuclei fraction,C32,88.5%
same,cleaved PARP positive nuclei fraction,CBRC013,74.8%
same,cleaved PARP positive nuclei fraction,CBRC014,93%
same,cleaved PARP positive nuclei fraction,CBRC016,48.2%
same,cleaved PARP positive nuclei fraction,CBRC017,136%
same,cleaved PARP positive nuclei fraction,CBRC034,99.9%
same,cleaved PARP positive nuclei fraction,COLO792,241%
same,cleaved PARP positive nuclei fraction,COLO800,147%
same,cleaved PARP positive nuclei fraction,COLO829,119%
same,cleaved PARP positive nuclei fraction,G361,77.7%
same,cleaved PARP positive nuclei fraction,IPC-298,43%
same,cleaved PARP positive nuclei fraction,IST-MEL1,208%
same,cleaved PARP positive nuclei fraction,LB2518-MEL,77.7%
same,cleaved PARP positive nuclei fraction,LOXIMVI,67.3%
"Cn1cncc1[C@@](N)(c1ccc(Cl)cc1)c1ccc2c(c1)c(-c1cccc(Cl)c1)cc(=O)n2C [tipifarnib] + COC(=O)c1sccc1S(=O)(=O)Nc1ccc(Nc2ccccc2)cc1OC [GSK0660] (first compound 0.01 µM, partner dose 1 µM)",cleaved PARP positive nuclei fraction,501Mel,87.1%
same,cleaved PARP positive nuclei fraction,A101D,168%
same,cleaved PARP positive nuclei fraction,A2058,71.8%
same,cleaved PARP positive nuclei fraction,A375,113%
same,cleaved PARP positive nuclei fraction,C32,64.8%
same,cleaved PARP positive nuclei fraction,CBRC013,177%
same,cleaved PARP positive nuclei fraction,CBRC014,97.2%
same,cleaved PARP positive nuclei fraction,CBRC016,23.7%
same,cleaved PARP positive nuclei fraction,CBRC017,180%
same,cleaved PARP positive nuclei fraction,CBRC034,185%
same,cleaved PARP positive nuclei fraction,COLO792,98.4%
same,cleaved PARP positive nuclei fraction,COLO800,94.6%
same,cleaved PARP positive nuclei fraction,COLO829,63.6%
same,cleaved PARP positive nuclei fraction,G361,89.2%
same,cleaved PARP positive nuclei fraction,IPC-298,164%
same,cleaved PARP positive nuclei fraction,IST-MEL1,85.3%
same,cleaved PARP positive nuclei fraction,LB2518-MEL,50.4%
same,cleaved PARP positive nuclei fraction,LOXIMVI,47.5%
"COCC[n+]1c2c(n(Cc3cnccn3)c1C)C(=O)c1ccccc1C2=O + CCN(CC)CCCCNc1ncc2cc(-c3cc(OC)cc(OC)c3)c(NC(=O)NC(C)(C)C)nc2n1 [PD173074] (first compound 0.0004 µM, partner dose 0.1 µM)",cleaved PARP positive nuclei fraction,501Mel,149%
same,cleaved PARP positive nuclei fraction,A101D,206%
same,cleaved PARP positive nuclei fraction,A2058,356%
same,cleaved PARP positive nuclei fraction,A375,341%
same,cleaved PARP positive nuclei fraction,C32,88.2%
same,cleaved PARP positive nuclei fraction,CBRC013,73.9%
same,cleaved PARP positive nuclei fraction,CBRC014,82.7%
same,cleaved PARP positive nuclei fraction,CBRC016,119%
same,cleaved PARP positive nuclei fraction,CBRC017,89.8%
same,cleaved PARP positive nuclei fraction,CBRC034,46.3%
same,cleaved PARP positive nuclei fraction,COLO792,80%
same,cleaved PARP positive nuclei fraction,COLO800,143%
same,cleaved PARP positive nuclei fraction,COLO829,70.1%
same,cleaved PARP positive nuclei fraction,G361,83%
same,cleaved PARP positive nuclei fraction,IPC-298,93.1%
same,cleaved PARP positive nuclei fraction,IST-MEL1,158%
same,cleaved PARP positive nuclei fraction,LB2518-MEL,186%
same,cleaved PARP positive nuclei fraction,LOXIMVI,49.7%
"Cc1ccc(NC(=O)c2cccc(N(C)C)c2)cc1NC(=O)c1ccc(O)cc1 + O=c1cc(-c2cccc3c2Sc2ccccc2S3)oc(N2CCOCC2)c1 [KU55933] (first compound 2 µM, partner dose 1 µM)",cleaved PARP positive nuclei fraction,501Mel,228%
same,cleaved PARP positive nuclei fraction,A101D,145%
same,cleaved PARP positive nuclei fraction,A2058,57.2%
same,cleaved PARP positive nuclei fraction,A375,91.4%
same,cleaved PARP positive nuclei fraction,C32,73.1%
same,cleaved PARP positive nuclei fraction,CBRC013,67%
same,cleaved PARP positive nuclei fraction,CBRC014,117%
same,cleaved PARP positive nuclei fraction,CBRC016,106%
same,cleaved PARP positive nuclei fraction,CBRC017,89.3%
same,cleaved PARP positive nuclei fraction,CBRC034,211%
same,cleaved PARP positive nuclei fraction,COLO792,114%
same,cleaved PARP positive nuclei fraction,COLO800,159%
same,cleaved PARP positive nuclei fraction,COLO829,130%
same,cleaved PARP positive nuclei fraction,G361,54%
same,cleaved PARP positive nuclei fraction,IPC-298,35.8%
same,cleaved PARP positive nuclei fraction,IST-MEL1,41%
same,cleaved PARP positive nuclei fraction,LB2518-MEL,80.7%
same,cleaved PARP positive nuclei fraction,LOXIMVI,44.6%
"OCCn1cc(-c2cnc3nnn(Cc4ccc5ncccc5c4)c3n2)cn1 + COC(=O)c1sccc1S(=O)(=O)Nc1ccc(Nc2ccccc2)cc1OC [GSK0660] (first compound 1 µM, partner dose 1 µM)",cleaved PARP positive nuclei fraction,501Mel,178%
same,cleaved PARP positive nuclei fraction,A101D,65.8%
same,cleaved PARP positive nuclei fraction,A2058,70.9%
same,cleaved PARP positive nuclei fraction,A375,128%
same,cleaved PARP positive nuclei fraction,C32,122%
same,cleaved PARP positive nuclei fraction,CBRC013,57.5%
same,cleaved PARP positive nuclei fraction,CBRC014,102%
same,cleaved PARP positive nuclei fraction,CBRC016,24.4%
same,cleaved PARP positive nuclei fraction,CBRC017,94.8%
same,cleaved PARP positive nuclei fraction,CBRC034,97.6%
same,cleaved PARP positive nuclei fraction,COLO792,90.5%
same,cleaved PARP positive nuclei fraction,COLO800,75.6%
same,cleaved PARP positive nuclei fraction,COLO829,179%
same,cleaved PARP positive nuclei fraction,G361,89.5%
same,cleaved PARP positive nuclei fraction,IPC-298,56.5%
same,cleaved PARP positive nuclei fraction,IST-MEL1,121%
same,cleaved PARP positive nuclei fraction,LB2518-MEL,75.2%
same,cleaved PARP positive nuclei fraction,LOXIMVI,32.1%
"Cn1c(Nc2ccc(C(F)(F)F)cc2)nc2cc(Oc3ccnc(-c4ncc(C(F)(F)F)[nH]4)c3)ccc21 + Oc1cc(-c2nc(-c3ccccc3)[nH]c2-c2ccncc2)ccc1Cl [L779450] (first compound 0.08 µM, partner dose 0.2 µM)",cleaved PARP positive nuclei fraction,501Mel,140%
same,cleaved PARP positive nuclei fraction,A101D,100%
same,cleaved PARP positive nuclei fraction,A2058,130%
same,cleaved PARP positive nuclei fraction,A375,365%
same,cleaved PARP positive nuclei fraction,C32,79.5%
same,cleaved PARP positive nuclei fraction,CBRC013,238%
same,cleaved PARP positive nuclei fraction,CBRC014,120%
same,cleaved PARP positive nuclei fraction,CBRC016,168%
same,cleaved PARP positive nuclei fraction,CBRC017,126%
same,cleaved PARP positive nuclei fraction,CBRC034,108%
same,cleaved PARP positive nuclei fraction,COLO792,169%
same,cleaved PARP positive nuclei fraction,COLO800,65.2%
same,cleaved PARP positive nuclei fraction,COLO829,108%
same,cleaved PARP positive nuclei fraction,G361,466%
same,cleaved PARP positive nuclei fraction,IPC-298,157%
same,cleaved PARP positive nuclei fraction,IST-MEL1,218%
same,cleaved PARP positive nuclei fraction,LB2518-MEL,194%
same,cleaved PARP positive nuclei fraction,LOXIMVI,71.1%
"CC(C)(C)c1cnc(CSc2cnc(NC(=O)C3CCNCC3)s2)o1 + CC(C)CCN1c2nc(Nc3cc(F)c(O)c(F)c3)ncc2N(C)C(=O)C1C [BID1870] (first compound 0.01 µM, partner dose 0.2 µM)",cleaved PARP positive nuclei fraction,501Mel,83.5%
same,cleaved PARP positive nuclei fraction,A101D,89%
same,cleaved PARP positive nuclei fraction,A2058,101%
same,cleaved PARP positive nuclei fraction,A375,71.7%
same,cleaved PARP positive nuclei fraction,C32,271%
same,cleaved PARP positive nuclei fraction,CBRC013,283%
same,cleaved PARP positive nuclei fraction,CBRC014,105%
same,cleaved PARP positive nuclei fraction,CBRC016,82.1%
same,cleaved PARP positive nuclei fraction,CBRC017,84.8%
same,cleaved PARP positive nuclei fraction,CBRC034,51.1%
same,cleaved PARP positive nuclei fraction,COLO792,73.3%
same,cleaved PARP positive nuclei fraction,COLO800,129%
same,cleaved PARP positive nuclei fraction,COLO829,104%
same,cleaved PARP positive nuclei fraction,G361,170%
same,cleaved PARP positive nuclei fraction,IPC-298,168%
same,cleaved PARP positive nuclei fraction,IST-MEL1,58.5%
same,cleaved PARP positive nuclei fraction,LB2518-MEL,93.6%
same,cleaved PARP positive nuclei fraction,LOXIMVI,37.3%
"C[C@@H]1CCN(C(=O)CC#N)C[C@@H]1N(C)c1ncnc2[nH]ccc12 + Oc1cc(-c2nc(-c3ccccc3)[nH]c2-c2ccncc2)ccc1Cl [L779450] (first compound 1 µM, partner dose 0.2 µM)",cleaved PARP positive nuclei fraction,501Mel,209%
same,cleaved PARP positive nuclei fraction,A101D,116%
same,cleaved PARP positive nuclei fraction,A2058,271%
same,cleaved PARP positive nuclei fraction,A375,169%
same,cleaved PARP positive nuclei fraction,C32,144%
same,cleaved PARP positive nuclei fraction,CBRC013,187%
same,cleaved PARP positive nuclei fraction,CBRC014,99.3%
same,cleaved PARP positive nuclei fraction,CBRC016,84.9%
same,cleaved PARP positive nuclei fraction,CBRC017,156%
same,cleaved PARP positive nuclei fraction,CBRC034,90%
same,cleaved PARP positive nuclei fraction,COLO792,91.1%
same,cleaved PARP positive nuclei fraction,COLO800,140%
same,cleaved PARP positive nuclei fraction,COLO829,69%
same,cleaved PARP positive nuclei fraction,G361,103%
same,cleaved PARP positive nuclei fraction,IPC-298,175%
same,cleaved PARP positive nuclei fraction,IST-MEL1,45.8%
same,cleaved PARP positive nuclei fraction,LB2518-MEL,85.4%
same,cleaved PARP positive nuclei fraction,LOXIMVI,54.3%
"Nc1cccc2c1CN(C1CCC(=O)NC1=O)C2=O (configuration not stated) [lenalidomide] + CC(C)CCN1c2nc(Nc3cc(F)c(O)c(F)c3)ncc2N(C)C(=O)C1C [BID1870] (first compound 1 µM, partner dose 0.2 µM)",cleaved PARP positive nuclei fraction,501Mel,76%
same,cleaved PARP positive nuclei fraction,A101D,55.9%
same,cleaved PARP positive nuclei fraction,A2058,208%
same,cleaved PARP positive nuclei fraction,A375,56.7%
same,cleaved PARP positive nuclei fraction,C32,42.8%
same,cleaved PARP positive nuclei fraction,CBRC013,406%
same,cleaved PARP positive nuclei fraction,CBRC014,191%
same,cleaved PARP positive nuclei fraction,CBRC016,124%
same,cleaved PARP positive nuclei fraction,CBRC017,77.9%
same,cleaved PARP positive nuclei fraction,CBRC034,100%
same,cleaved PARP positive nuclei fraction,COLO792,89.4%
same,cleaved PARP positive nuclei fraction,COLO800,66.3%
same,cleaved PARP positive nuclei fraction,COLO829,84.5%
same,cleaved PARP positive nuclei fraction,G361,70.3%
same,cleaved PARP positive nuclei fraction,IPC-298,139%
same,cleaved PARP positive nuclei fraction,IST-MEL1,88.8%
same,cleaved PARP positive nuclei fraction,LB2518-MEL,193%
same,cleaved PARP positive nuclei fraction,LOXIMVI,94.8%
